Assay results from patent publication US11884710B2, “Peptide compounds and methods of use in wound healing” (priority 2013, dated 2024).
Some entries share one result that the patent states for a list of compounds.

System: Pseudomonas aeruginosa ATCC 27853
Experiment: In vitro bactericidal assay, P. aeruginosa ATCC 27853 (FIGS. 12-14)
Format: cell-based
Settings: pH 5.5, 180 minutes; for lowering of the CFU count: FIG. 14, highest concentration of peptide (150 μg/ml); for reduction of CFU/ml: highest peptide concentration
Method: (§1) Each of the test peptides was used at 25, 12.5 6.25, and 3.12 μM. The gentamicin was used at 4 μg/ml. 1×10^6/ml Pseudomonas aeruginosa ATCC® 27853™ (American Type Culture Collection, Manassas, Va.) were incubated with the peptides, negative buffer control (tryptone saline), and positive control gentamicin for 180 minutes at pH 7.2. 50 μl aliquots were plated out on agar plates and incubated overnight. Colony forming units were counted after overnight incubation and CFU/ml calculated.
as §1, with “12.5,” for “12.5”, “5.5.” for “7.2.”
FIG. 14 is a comparison of bactericidal activity of CAP37 peptides 120-146WR (SEQ ID NO:30), 120-146WH (SEQ ID NO:31), 120-146QR (SEQ ID NO:28), 120-146QH (SEQ ID NO:29), 120-146QR-5RMP (SEQ ID NO:32), and 120-146QH-5RMP (SEQ ID NO:33) for Pseudomonas aeruginosa ATCC® 27853™ (American Type Culture Collection, Manassas, Va.). 1×10^6/ml Pseudomonas aeruginosa ATCC® 27853™ were incubated with the peptides at 150, 75, and 37.5 μg/ml and negative buffer control (tryptone saline) for 180 minutes at pH 5.5. 50 μl aliquots were plated out on agar plates and incubated overnight. Colony forming units were counted after overnight incubation and CFU/ml calculated.
For FIGS. 10-13, in vitro bactericidal assays were performed using a starting inoculum of 1×10^6 CFU/ml of the bacterial suspension. The CFU remaining at the end of the 60-180 minute incubation was determined, and the data was plotted as log reduction in CFU/ml.
In particular, each of the test peptides (CAP37 peptides 120-146WR, 120-146WH, and 95-122 (SEQ ID NOS:30, 31, and 26, respectively)) was used at 25, 12.5, 6.25, and 3.12 μM. Gentamicin was used at 4 μg/ml. […] Colony forming units were counted after overnight incubation and CFU/ml calculated.
For FIG. 14, 1×10^6/ml Pseudomonas aeruginosa ATCC® 27853™ were incubated with each of the test peptides (CAP37 peptides 120-146WR, 120-146WH, 120-146QR, 120-146QH, 120-146QR-5RMP, and 120-146QH-5RMP (SEQ ID NOS:30, 31, 28, 29, 32, and 33, respectively)) at 150, 75, and 37.5 μg/ml, or negative buffer control (tryptone saline), for 180 minutes at pH 5.5. […] Colony forming units were counted after overnight incubation and CFU/ml calculated.

Sequence | lowering of the CFU count | reduction of CFU/ml
GTRCQVAGWGSQHSGGRLSRFPRFVNV (derivative of peptide of Homo sapiens CAP37 protein) [Peptide 120-146QH] | 1-2 logs | 
GTRCQVAGWGSQRSGGRLSRFPRFVNV (listed as Homo sapiens) [Peptide 120-146QR] | 1-2 logs | 
GTRCQVAGWGSWHSGGRLSRFPRFVNV (derivative of peptide of CAP37 protein) [Peptide 120-146WH] |  | 4-5 logs
GTRCQVAGWGSWRSGGRLSRFPRFVNV (derivative of peptide of Homo sapiens CAP37 protein) [Peptide 120-146WR] |  | 4-5 logs
